# Experimental data taken from the supplement of paper PMC8728848.
# This is one part of the list.
# B1: SLLPI (Mus musculus), Q9D9X8 (protein)
# chain: MGICMSMYTQVLVPVDADGDHHILWSRFYERWGSCFNPCAGLVNCLPPHSSALYLCHRMEARSRAPRRQLCPPGITWLALAYLLSCLLASSKAKVFSRCELAKEMHDFGLDGYRGYNLADWVCLAYYTSGFNTNAVDHEADGSTNNGIFQISSRRWCRTLASNGPNLCRIYCTDLLNNDLKDSIVCAMKIVQEPLGLGYWEAWRHHCQGRDLSDWVDGCDF
# Assays:
# Assay in all cases: glycan array binding signal (z-score within array); higher = stronger binding
# Conditions in all cases: glycan notation: IUPAC condensed, linker removed
# [1] = biological target: Fuc(a1-2)[GalNAc(a1-3)]Gal(b1-4)[Fuc(a1-3)]GlcNAc
# Method in brief: (§1)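 Glycan array data were curated from 3228 arrays in the Consortium for Functional Glycomics database and kept only where the protein sequence was available. Glycan names were converted to IUPAC-condensed notation, and columns mapping to the same glycan were averaged. The binding signal is a within-array Z-score, averaged across arrays of the same protein sequence at different concentrations or buffers and across linkers. Negative Z-scores can be read as non-binding.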
# [2] = biological target: Fuc(a1-2)[GalNAc(a1-4)]Gal(b1-4)GlcNAc
# Method in brief: as §1
# [3] = biological target: Fuc(a1-2)[GalNAc(b1-3)]Gal
# Method in brief: as §1
# [4] = biological target: Fuc(a1-3)GlcNAc
# Method in brief: as §1
# [5] = biological target: Fuc(a1-3)[Gal(b1-4)]Glc6S
# Method in brief: as §1
# [6] = biological target: Fuc(a1-3)[Gal(b1-4)]GlcNAc
# Method in brief: as §1
# [7] = biological target: Fuc(a1-3)[Gal(b1-4)]GlcNAc(b1-2)Man(a1-3)[Fuc(a1-3)[Gal(b1-4)]GlcNAc(b1-2)Man(a1-6)]Man(b1-4)GlcNAc(b1-4)GlcNAc
# Method in brief: as §1
# [8] = biological target: Fuc(a1-3)[Gal(b1-4)]GlcNAc(b1-2)Man(a1-6)[Gal(b1-4)GlcNAc(b1-2)Man(a1-3)]Man(b1-4)GlcNAc(b1-4)GlcNAc
# Method in brief: as §1
# [9] = biological target: Fuc(a1-3)[Gal(b1-4)]GlcNAc(b1-3)Gal(b1-3)[Fuc(a1-4)]GlcNAc
# Method in brief: as §1
# [10] = biological target: Fuc(a1-3)[Gal(b1-4)]GlcNAc(b1-4)Gal(b1-4)[Fuc(a1-3)]GlcNAc
# Method in brief: as §1
# [11] = biological target: Fuc(a1-3)[Gal(b1-4)]GlcNAc(b1-4)Gal(b1-4)[Fuc(a1-3)]GlcNAc(b1-4)Gal(b1-4)[Fuc(a1-3)]GlcNAc
# Method in brief: as §1
# [12] = biological target: Fuc(a1-3)[Gal(b1-4)]GlcNAc6S
# Method in brief: as §1
# [13] = biological target: Fuc(a1-3)[Gal3S(b1-4)]Glc6S
# Method in brief: as §1
# [14] = biological target: Fuc(a1-3)[Gal3S(b1-4)]GlcNAc
# Method in brief: as §1
# [15] = biological target: Fuc(a1-3)[Gal3S(b1-4)]GlcNAc6S
# Method in brief: as §1
# [16] = biological target: Fuc(a1-3)[GalNAc(b1-4)]GlcNAc
# Method in brief: as §1
# [17] = biological target: Fuc(a1-4)GlcNAc
# Method in brief: as §1
# [18] = biological target: Fuc(b1-3)GlcNAc
# Method in brief: as §1
# [19] = biological target: Gal(a1-2)Gal
# Method in brief: as §1
# [20] = biological target: Gal(a1-3)Gal
# Method in brief: as §1
# [21] = biological target: Gal(a1-3)Gal(b1-3)GlcNAc
# Method in brief: as §1
# [22] = biological target: Gal(a1-3)Gal(b1-4)Glc
# Method in brief: as §1
# [23] = biological target: Gal(a1-3)Gal(b1-4)GlcNAc
# Method in brief: as §1
# [24] = biological target: Gal(a1-3)Gal(b1-4)[Fuc(a1-3)]GlcNAc
# Method in brief: as §1
# [25] = biological target: Gal(a1-3)GalNAc
# Method in brief: as §1
# [26] = biological target: Gal(a1-3)[Gal(a1-4)]Gal(b1-4)GlcNAc
# Method in brief: as §1
# [27] = biological target: Gal(a1-4)Gal(b1-4)Glc
# Method in brief: as §1
# [28] = biological target: Gal(a1-4)Gal(b1-4)GlcNAc
# Method in brief: as §1
# [29] = biological target: Gal(a1-4)GlcNAc
# Method in brief: as §1
# [30] = biological target: Gal(a1-6)Glc
# Method in brief: as §1
# [31] = biological target: Gal(b1-2)Gal
# Method in brief: as §1
# [32] = biological target: Gal(b1-3)Gal
# Method in brief: as §1
# [33] = biological target: Gal(b1-3)Gal(b1-4)GlcNAc
# Method in brief: as §1
# [34] = biological target: Gal(b1-3)GalNAc
# Method in brief: as §1
# [35] = biological target: Gal(b1-3)GalNAc(b1-3)Gal(a1-4)Gal(b1-4)Glc
# Method in brief: as §1
# [36] = biological target: Gal(b1-3)GalNAc(b1-4)Gal(b1-4)Glc
# Method in brief: as §1
# [37] = biological target: Gal(b1-3)GalNAc(b1-4)[Neu5Ac(a2-3)]Gal(b1-4)Glc
# Method in brief: as §1
# [38] = biological target: Gal(b1-3)GlcNAc
# Method in brief: as §1
# [39] = biological target: Gal(b1-3)GlcNAc(b1-2)Man(a1-3)[Gal(b1-3)GlcNAc(b1-2)Man(a1-6)]Man(b1-4)GlcNAc(b1-4)GlcNAc
# Method in brief: as §1
# [40] = biological target: Gal(b1-3)GlcNAc(b1-3)Gal(b1-3)GlcNAc
# Method in brief: as §1
# [41] = biological target: Gal(b1-3)GlcNAc(b1-3)Gal(b1-4)Glc
# Method in brief: as §1
# [42] = biological target: Gal(b1-3)GlcNAc(b1-3)Gal(b1-4)GlcNAc
# Method in brief: as §1
# [43] = biological target: Gal(b1-3)[Fuc(a1-4)]GlcNAc
# Method in brief: as §1
# [44] = biological target: Gal(b1-3)[Fuc(a1-4)]GlcNAc(b1-3)Gal(b1-3)[Fuc(a1-4)]GlcNAc
# Method in brief: as §1
# [45] = biological target: Gal(b1-3)[Fuc(a1-4)]GlcNAc(b1-3)Gal(b1-4)GlcNAc
# Method in brief: as §1
binder,measurement,setting,value
B1,glycan array binding signal (z-score),[1],-0.816
same,glycan array binding signal (z-score),[2],1.16
same,glycan array binding signal (z-score),[3],-0.933
same,glycan array binding signal (z-score),[4],0.327
same,glycan array binding signal (z-score),[5],0.72
same,glycan array binding signal (z-score),[6],0.227
same,glycan array binding signal (z-score),[7],-0.31
same,glycan array binding signal (z-score),[8],-1.25
same,glycan array binding signal (z-score),[9],-0.853
same,glycan array binding signal (z-score),[10],-0.163
same,glycan array binding signal (z-score),[11],-0.572
same,glycan array binding signal (z-score),[12],1.67
same,glycan array binding signal (z-score),[13],2.32
same,glycan array binding signal (z-score),[14],1.59
same,glycan array binding signal (z-score),[15],3.34
same,glycan array binding signal (z-score),[16],-0.837
same,glycan array binding signal (z-score),[17],0.191
same,glycan array binding signal (z-score),[18],0.367
same,glycan array binding signal (z-score),[19],-0.146
same,glycan array binding signal (z-score),[20],0.755
same,glycan array binding signal (z-score),[21],0.223
same,glycan array binding signal (z-score),[22],2.15
same,glycan array binding signal (z-score),[23],1.22
same,glycan array binding signal (z-score),[24],-0.557
same,glycan array binding signal (z-score),[25],-0.379
same,glycan array binding signal (z-score),[26],-0.467
same,glycan array binding signal (z-score),[27],-0.945
same,glycan array binding signal (z-score),[28],-1.13
same,glycan array binding signal (z-score),[29],-1.32
same,glycan array binding signal (z-score),[30],-0.792
same,glycan array binding signal (z-score),[31],0.362
same,glycan array binding signal (z-score),[32],-0.267
same,glycan array binding signal (z-score),[33],-0.696
same,glycan array binding signal (z-score),[34],-0.559
same,glycan array binding signal (z-score),[35],-1.82
same,glycan array binding signal (z-score),[36],0.094
same,glycan array binding signal (z-score),[37],0.269
same,glycan array binding signal (z-score),[38],0.884
same,glycan array binding signal (z-score),[39],-0.288
same,glycan array binding signal (z-score),[40],-1.05
same,glycan array binding signal (z-score),[41],0.518
same,glycan array binding signal (z-score),[42],-0.004
same,glycan array binding signal (z-score),[43],-0.352
same,glycan array binding signal (z-score),[44],-0.028
same,glycan array binding signal (z-score),[45],-0.4

# Quoted at random: three records from the list.
binder,measurement,setting,value
B1,glycan array binding signal (z-score),[35],-1.82
same,glycan array binding signal (z-score),[31],0.362
same,glycan array binding signal (z-score),[16],-0.837
